This is one part of the list. Construct or isoform of the protein are uncertain.

This test has as its target T1, ETS1 (UniProt P14921).
T1 sequence: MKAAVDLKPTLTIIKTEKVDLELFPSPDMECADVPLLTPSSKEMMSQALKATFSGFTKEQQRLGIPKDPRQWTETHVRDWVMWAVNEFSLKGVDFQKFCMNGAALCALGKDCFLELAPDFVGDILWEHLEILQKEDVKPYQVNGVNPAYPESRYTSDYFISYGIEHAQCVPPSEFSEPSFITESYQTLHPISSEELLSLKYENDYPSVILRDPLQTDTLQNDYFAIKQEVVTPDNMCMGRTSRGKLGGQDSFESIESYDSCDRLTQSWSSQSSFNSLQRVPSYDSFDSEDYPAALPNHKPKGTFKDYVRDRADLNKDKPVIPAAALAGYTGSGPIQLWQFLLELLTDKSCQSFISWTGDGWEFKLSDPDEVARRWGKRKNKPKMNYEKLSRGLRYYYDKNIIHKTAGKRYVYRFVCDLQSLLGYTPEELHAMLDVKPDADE
The test is described as follows: DAPPL (digital affinity profiling via proximity ligation, sequencing). The settings on record: 10 mM Tris-HCl pH 7.5, 50 mM NaCl, 1 mM DTT, 4% glycerol, room temperature, 30 min; GST-TFs on glutathione beads, 16-mer random dsDNA library, 0.1% …; high values mean tight binding; double strand, one strand shown; scale: fold enrichment (6-mer frequency, TF over GST control).
TCCGGG showed a binding signal of 1.36.

CTGACC yielded a binding signal of 1.27.

Sequence AATTCT gave a binding signal of 1.31.

GGATAT had a binding signal of 1.51.

Sequence ACAAAT registered a binding signal of 1.18.

On to AATTCG, for which the binding signal worked out at 1.23.

The sequence ATTCTC displayed a binding signal of 1.23.

As to AAAGTT, the binding signal came out at 1.08.

As for AATTTC, the binding signal came to 1.77.

CTCAGT yielded a binding signal of 1.02.

For TCCCGT, the binding signal is 1.3.

TCTATC registered a binding signal of 1.22.

With CTGCAT, the binding signal came to 1.43.

With TCCTCG, the binding signal came out at 1.39.

CAACTT registered a binding signal of 1.62.

The sequence GTCTTG showed a binding signal of 1.06.

ATGCTG had a binding signal of 1.12.

GTCTCT came in with a binding signal of 1.36.

In turn, ATTAGG displayed a binding signal of 1.09.

On to AAAATA, for which the binding signal was 1.19.

In turn, CTTTGG displayed a binding signal of 1.3.

ATCTAT displayed a binding signal of 1.24.

Sequence CGCAAC returned a binding signal of 1.07.

In the case of AAGATG, the binding signal turned out to be 1.1.

On to CCCGAT, for which the binding signal came to 1.08.

In turn, TAATTC displayed a binding signal of 1.43.

As for GATGTA, the binding signal worked out at 1.4.

In turn, CTTATT had a binding signal of 1.56.

Sequence ATTGGC gave a binding signal of 1.16.

Sequence TGATGA gave a binding signal of 1.32.

In turn, ACACGG showed a binding signal of 1.04.

GATGCA gave a binding signal of 1.12.

Consider CCTAAG, for which the binding signal turned out to be 1.17.

CCAATT returned a binding signal of 1.24.

With ATAGCC, the binding signal was 0.979.

Turning to CCTTTA, the binding signal came out at 1.37.

TGTACC came in with a binding signal of 1.3.

Sequence GTACAA came in with a binding signal of 1.06.

Sequence TCGCAT displayed a binding signal of 0.952.

The record behind these values is PMC7862700.
